{"sequences": {"note": "By UniProt entry, the sequences of proteins in these tests, tags left out. Where a name states a change or a piece, a line headed by the entry shows the natural chain unless it says otherwise. Residues count along the entry.", "UniProt Q16548, 1-153 limits assumed, stated change not applied": "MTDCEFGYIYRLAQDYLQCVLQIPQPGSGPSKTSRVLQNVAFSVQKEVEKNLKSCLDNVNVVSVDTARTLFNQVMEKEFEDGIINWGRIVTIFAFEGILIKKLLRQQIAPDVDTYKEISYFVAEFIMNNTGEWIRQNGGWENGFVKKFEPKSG"}, "source": "patent US9926306B2", "about": "“Inhibition of MCL-1 and/or BFL-1/A1” (Dana-Farber Cancer Institute, Inc., priority 2012, dated 2018)", "molecular_target": "BFL-1/A1ΔC (Homo sapiens (Human), UniProt Q16548)", "test": "Competitive fluorescence polarization binding assay, BFL-1/A1 (FITC-BID BH3)", "settings": "read-out: BFL-1/A1 (IC50); Table A; tested form: TFA", "protocol": "FIG. 19A and FIG. 19B are graphs that show potent targeting of the anti-apoptotic protein BFL-1/A1 by MIM1. […] Thus, the complex between FITC-BID BH3 and BFL-1/A1ΔC was employed in a competitive FP assay to monitor the capacity of MIM1 to target BFL-1/A1ΔC.\nFluorescence polarization assays (FPA) were performed as previously described^38,39. Briefly, direct binding curves were first generated by incubating FITC-MCL-1 SAHBA, FITC-BID BH3, or FITC-BAD BH3 (15 nM) with serial dilutions of anti-apoptotic protein, and fluorescence polarization measured at 5 minutes on a SpectraMax M5 microplate reader (Molecular Devices). For competition assays, a serial dilution of small molecule or acetylated peptide was added to recombinant protein at ˜EC75 concentration, as determined by the direct binding assay (e.g. MCL-1 ΔNΔC, 45 nM; BCL-XLΔC, 300 nM). Fluorescence polarization was measured at equilibrium and IC50 values calculated by nonlinear regression analysis of competitive binding curves using Prism software (Graphpad).", "note": "The structures given here were assigned with low confidence; some may be wrong. Not every entry of the source has a single result; some have several. They are shown here; other results are not. An entry can have further records. Results that share an entry seem to repeat one measurement on other runs, samples or individuals."}
{"molecule": "Cc1s/c(=N\\C2CCNCC2)n(/N=C/c2ccc(O)c(O)c2O)c1C1CC1", "values": [{"measurement": "IC50", "value": "689 nM and 265 nM"}]}
